# In the supplement of paper PMC8426693:
# The list shows a part of the results. Repeats are few or missing, and single values can be far off.
# Experiments:
# Conditions in all cases: RNA concentration 10 µM; fragment concentration 200 µM; 293 K
# SARS-CoV-2 5_SL5 RNA [1] = assay: 1H chemical shift perturbation upon RNA addition; higher = stronger binding
# SARS-CoV-2 5_SL7 RNA = assay: as above
# SARS-CoV-2 3'-UTR RNA = assay: waterLOGSY factor (bound vs free ligand) (ratio); higher = stronger binding
# SARS-CoV-2 3_SL1+2 RNA = assay: as above
# SARS-CoV-2 3_SL3base RNA = assay: as above
# SARS-CoV-2 3_s2m RNA = assay: as above
# SARS-CoV-2 5'-UTR RNA = assay: as above
# SARS-CoV-2 5_SL4 RNA = assay: as above
# SARS-CoV-2 5_SL5 RNA [2] = assay: as above
# SARS-CoV-2 5_SL5stem RNA = assay: 1H chemical shift perturbation upon RNA addition; higher = stronger binding
# SARS-CoV-2 5_SL5b+c RNA [3] = assay: as above
# SARS-CoV-2 3_SL2 RNA = assay: waterLOGSY factor (bound vs free ligand) (ratio); higher = stronger binding
# SARS-CoV-2 5_SL5b+c RNA [4] = assay: as above
# [5] = tested on: SARS-CoV-2 frameshift pseudoknot (PK) RNA; assay: 1H chemical shift perturbation upon RNA addition; higher = stronger binding
# SARS-CoV-2 5_SL8 RNA = assay: as above
# SARS-CoV-2 5_SL6 RNA = assay: as above
# [6] = tested on: SARS-CoV-2 attenuator hairpin (att HP) RNA; assay: as above
# SARS-CoV-2 3_SL1 RNA = assay: waterLOGSY factor (bound vs free ligand) (ratio); higher = stronger binding
# SARS-CoV-2 5_SL1 RNA = assay: as above
# SARS-CoV-2 5_SL1234 RNA = assay: as above
smiles,measurement,setting,value
NC(=O)c1cc(N2CCCC2)ccn1,1H chemical shift perturbation upon RNA addition,SARS-CoV-2 5_SL5 RNA [1],7 Hz
same,1H chemical shift perturbation upon RNA addition,SARS-CoV-2 5_SL7 RNA,11 Hz
same,waterLOGSY factor,SARS-CoV-2 3'-UTR RNA,2.54
same,waterLOGSY factor,SARS-CoV-2 3_SL1+2 RNA,1.31
same,waterLOGSY factor,SARS-CoV-2 3_SL3base RNA,1.67
same,waterLOGSY factor,SARS-CoV-2 3_s2m RNA,2.88
same,waterLOGSY factor,SARS-CoV-2 5'-UTR RNA,3.47
same,waterLOGSY factor,SARS-CoV-2 5_SL4 RNA,0.7
same,waterLOGSY factor,SARS-CoV-2 5_SL5 RNA [2],0.99
COc1ccc2sc(N)nc2c1,1H chemical shift perturbation upon RNA addition,SARS-CoV-2 5_SL5 RNA [1],6 Hz
same,waterLOGSY factor,SARS-CoV-2 3'-UTR RNA,2.65
same,waterLOGSY factor,SARS-CoV-2 3_SL3base RNA,1.5
same,waterLOGSY factor,SARS-CoV-2 5'-UTR RNA,1.95
same,waterLOGSY factor,SARS-CoV-2 5_SL5 RNA [2],1.15
O=C(Nc1cccnc1)c1cnn2cccnc12,1H chemical shift perturbation upon RNA addition,SARS-CoV-2 5_SL5 RNA [1],12 Hz
same,waterLOGSY factor,SARS-CoV-2 3'-UTR RNA,6.03
same,waterLOGSY factor,SARS-CoV-2 5_SL5 RNA [2],1.49
O=C(Nc1ccccn1)c1cnccn1,1H chemical shift perturbation upon RNA addition,SARS-CoV-2 5_SL5 RNA [1],5 Hz
same,waterLOGSY factor,SARS-CoV-2 5'-UTR RNA,1.17
same,waterLOGSY factor,SARS-CoV-2 5_SL5 RNA [2],1.15
O=C(Nc1ccon1)c1cccc(Cl)c1,1H chemical shift perturbation upon RNA addition,SARS-CoV-2 5_SL5 RNA [1],7 Hz
same,1H chemical shift perturbation upon RNA addition,SARS-CoV-2 5_SL5stem RNA,5 Hz
same,waterLOGSY factor,SARS-CoV-2 3'-UTR RNA,1.75
same,waterLOGSY factor,SARS-CoV-2 3_SL3base RNA,1.45
same,waterLOGSY factor,SARS-CoV-2 5'-UTR RNA,2.62
same,waterLOGSY factor,SARS-CoV-2 5_SL5 RNA [2],1.4
CN1CCN(c2ccc(C#N)cc2)CC1,1H chemical shift perturbation upon RNA addition,SARS-CoV-2 5_SL7 RNA,13 Hz
same,waterLOGSY factor,SARS-CoV-2 3'-UTR RNA,1.45
Nc1nccc(-c2ccc(Cl)cc2)n1,1H chemical shift perturbation upon RNA addition,SARS-CoV-2 5_SL5 RNA [1],15 Hz
same,1H chemical shift perturbation upon RNA addition,SARS-CoV-2 5_SL5b+c RNA [3],5 Hz
same,waterLOGSY factor,SARS-CoV-2 3'-UTR RNA,3.82
same,waterLOGSY factor,SARS-CoV-2 3_SL2 RNA,1.78
same,waterLOGSY factor,SARS-CoV-2 3_SL3base RNA,1.62
same,waterLOGSY factor,SARS-CoV-2 5'-UTR RNA,2.23
same,waterLOGSY factor,SARS-CoV-2 5_SL5 RNA [2],1.72
same,waterLOGSY factor,SARS-CoV-2 5_SL5b+c RNA [4],1.21
Cc1nccc(N2CCC(N)CC2)n1,1H chemical shift perturbation upon RNA addition,SARS-CoV-2 5_SL5b+c RNA [3],12 Hz
same,1H chemical shift perturbation upon RNA addition,[5],5 Hz
same,waterLOGSY factor,SARS-CoV-2 3'-UTR RNA,1.64
same,waterLOGSY factor,SARS-CoV-2 3_SL1+2 RNA,1.43
same,waterLOGSY factor,SARS-CoV-2 3_SL2 RNA,0.728
same,waterLOGSY factor,SARS-CoV-2 3_SL3base RNA,1.35
same,waterLOGSY factor,SARS-CoV-2 3_s2m RNA,2.68
same,waterLOGSY factor,SARS-CoV-2 5'-UTR RNA,2.52
same,waterLOGSY factor,SARS-CoV-2 5_SL5b+c RNA [4],1.04
CNCc1cnn(-c2ccccc2)c1,1H chemical shift perturbation upon RNA addition,SARS-CoV-2 5_SL5b+c RNA [3],13 Hz
same,waterLOGSY factor,SARS-CoV-2 5'-UTR RNA,1.46
same,waterLOGSY factor,SARS-CoV-2 5_SL5b+c RNA [4],0.79
c1ccc(NCC2CCNC2)nc1 (stereo not given),1H chemical shift perturbation upon RNA addition,SARS-CoV-2 5_SL5b+c RNA [3],30 Hz
same,1H chemical shift perturbation upon RNA addition,SARS-CoV-2 5_SL7 RNA,27 Hz
same,waterLOGSY factor,SARS-CoV-2 5'-UTR RNA,1.93
same,waterLOGSY factor,SARS-CoV-2 5_SL5b+c RNA [4],0.9
CCN(C)C(=O)c1cccc(N)c1,1H chemical shift perturbation upon RNA addition,SARS-CoV-2 5_SL8 RNA,3.26 Hz
OCc1cn(-c2ccc(Cl)c(Cl)c2)nn1,1H chemical shift perturbation upon RNA addition,SARS-CoV-2 5_SL5 RNA [1],9 Hz
same,1H chemical shift perturbation upon RNA addition,SARS-CoV-2 5_SL5b+c RNA [3],12 Hz
same,1H chemical shift perturbation upon RNA addition,SARS-CoV-2 5_SL5stem RNA,8 Hz
same,1H chemical shift perturbation upon RNA addition,SARS-CoV-2 5_SL6 RNA,8 Hz
same,1H chemical shift perturbation upon RNA addition,SARS-CoV-2 5_SL7 RNA,9 Hz
same,1H chemical shift perturbation upon RNA addition,SARS-CoV-2 5_SL8 RNA,8.14 Hz
same,1H chemical shift perturbation upon RNA addition,[6],7 Hz
same,1H chemical shift perturbation upon RNA addition,[5],1 Hz
same,waterLOGSY factor,SARS-CoV-2 3'-UTR RNA,11.7
same,waterLOGSY factor,SARS-CoV-2 3_SL1 RNA,3.26
same,waterLOGSY factor,SARS-CoV-2 3_SL1+2 RNA,4.26
same,waterLOGSY factor,SARS-CoV-2 3_SL2 RNA,18.2
same,waterLOGSY factor,SARS-CoV-2 3_SL3base RNA,2.1
same,waterLOGSY factor,SARS-CoV-2 3_s2m RNA,2.86
same,waterLOGSY factor,SARS-CoV-2 5'-UTR RNA,4.69
same,waterLOGSY factor,SARS-CoV-2 5_SL1 RNA,1.43
same,waterLOGSY factor,SARS-CoV-2 5_SL1234 RNA,6.13
same,waterLOGSY factor,SARS-CoV-2 5_SL4 RNA,2.23
same,waterLOGSY factor,SARS-CoV-2 5_SL5 RNA [2],3.69
same,waterLOGSY factor,SARS-CoV-2 5_SL5b+c RNA [4],3.03
Cc1sc2ncnc(N(C)C)c2c1C,1H chemical shift perturbation upon RNA addition,SARS-CoV-2 5_SL5 RNA [1],8 Hz
same,waterLOGSY factor,SARS-CoV-2 3'-UTR RNA,2.56
same,waterLOGSY factor,SARS-CoV-2 3_SL3base RNA,1.55
same,waterLOGSY factor,SARS-CoV-2 5'-UTR RNA,3.07
same,waterLOGSY factor,SARS-CoV-2 5_SL5 RNA [2],1.52
Cl.NCc1cc(-c2ccccc2)no1,1H chemical shift perturbation upon RNA addition,SARS-CoV-2 5_SL7 RNA,13 Hz
same,waterLOGSY factor,SARS-CoV-2 3'-UTR RNA,1.43
same,waterLOGSY factor,SARS-CoV-2 3_s2m RNA,1
same,waterLOGSY factor,SARS-CoV-2 5'-UTR RNA,5.09
c1ccc(-c2ccc(-n3cnnn3)cc2)cc1,1H chemical shift perturbation upon RNA addition,SARS-CoV-2 5_SL6 RNA,7 Hz
same,1H chemical shift perturbation upon RNA addition,SARS-CoV-2 5_SL7 RNA,8 Hz
same,1H chemical shift perturbation upon RNA addition,[5],3 Hz
COc1ccc(CN)cc1OC,1H chemical shift perturbation upon RNA addition,SARS-CoV-2 5_SL5b+c RNA [3],6 Hz
same,waterLOGSY factor,SARS-CoV-2 5_SL5b+c RNA [4],0.76
O=C(Nc1ccc2ncccc2c1)c1ccccc1,1H chemical shift perturbation upon RNA addition,SARS-CoV-2 5_SL5 RNA [1],4 Hz
same,waterLOGSY factor,SARS-CoV-2 3'-UTR RNA,2.16
same,waterLOGSY factor,SARS-CoV-2 3_SL3base RNA,1.71
same,waterLOGSY factor,SARS-CoV-2 5'-UTR RNA,1.99
same,waterLOGSY factor,SARS-CoV-2 5_SL5 RNA [2],1.38
N#Cc1ccc(NC(=O)c2cccs2)cc1,1H chemical shift perturbation upon RNA addition,SARS-CoV-2 5_SL5 RNA [1],9 Hz
same,waterLOGSY factor,SARS-CoV-2 3'-UTR RNA,2.54
same,waterLOGSY factor,SARS-CoV-2 3_SL3base RNA,1.46
same,waterLOGSY factor,SARS-CoV-2 5'-UTR RNA,8.77
same,waterLOGSY factor,SARS-CoV-2 5_SL5 RNA [2],2.04
COc1ccc(Nc2ncnc3[nH]cnc23)cc1,1H chemical shift perturbation upon RNA addition,SARS-CoV-2 5_SL5 RNA [1],7 Hz
same,waterLOGSY factor,SARS-CoV-2 3'-UTR RNA,1.89
same,waterLOGSY factor,SARS-CoV-2 3_SL3base RNA,1.23
same,waterLOGSY factor,SARS-CoV-2 5'-UTR RNA,1.78
same,waterLOGSY factor,SARS-CoV-2 5_SL5 RNA [2],1.04
CC(=O)c1ccc(NC(=O)CN2CCCC2)cc1,1H chemical shift perturbation upon RNA addition,SARS-CoV-2 5_SL5 RNA [1],10 Hz
same,1H chemical shift perturbation upon RNA addition,SARS-CoV-2 5_SL7 RNA,10 Hz
same,1H chemical shift perturbation upon RNA addition,[5],7 Hz
same,waterLOGSY factor,SARS-CoV-2 3'-UTR RNA,1.78
same,waterLOGSY factor,SARS-CoV-2 3_SL1+2 RNA,1.2
same,waterLOGSY factor,SARS-CoV-2 3_SL2 RNA,0.523
same,waterLOGSY factor,SARS-CoV-2 3_SL3base RNA,1.38
same,waterLOGSY factor,SARS-CoV-2 3_s2m RNA,0.485
same,waterLOGSY factor,SARS-CoV-2 5'-UTR RNA,1.22
same,waterLOGSY factor,SARS-CoV-2 5_SL1 RNA,0.745
same,waterLOGSY factor,SARS-CoV-2 5_SL5 RNA [2],1.22
COc1ccc2[nH]cc(CN(C)C)c2c1,1H chemical shift perturbation upon RNA addition,SARS-CoV-2 5_SL7 RNA,7 Hz
same,waterLOGSY factor,SARS-CoV-2 5'-UTR RNA,1.48

# Given tab-delimited: entries from further up.
smiles	measurement	setting	value
COc1ccc2sc(N)nc2c1	1H chemical shift perturbation upon RNA addition	SARS-CoV-2 5_SL5 RNA [1]	6 Hz
same	waterLOGSY factor	SARS-CoV-2 3'-UTR RNA	2.65
same	waterLOGSY factor	SARS-CoV-2 3_SL3base RNA	1.5

# An excerpt of these results, bar-delimited.
smiles | measurement | setting | value
O=C(Nc1ccc2ncccc2c1)c1ccccc1 | waterLOGSY factor | SARS-CoV-2 5'-UTR RNA | 1.99
same | waterLOGSY factor | SARS-CoV-2 5_SL5 RNA [2] | 1.38
